Laboratory results: PMC7567103 (Nature Communications, 2020)
These are yes or no findings as the source states them, for the method shown. For part of these data: Binding seen in cells or lysates may run through a third protein. Some binding calls cover weakened binding; strength is not graded here. For part of these data: Tags and fused reporters may be left off the sequences shown.

Assays:
[1] = biological target: T1, HA-Flag-GHRHR-Rluc8 (WT) (human) (UniProt Q02643); test: FRET or BRET; HEK 293 T cells co-transfected with HA-Flag-GHRHR-Rluc8 and β-arrestin2-Venus (1:9), coelenterazine h, 250 μM GHRH added; AUC of the BRET time course normalised to WT (100%)
T1 sequence: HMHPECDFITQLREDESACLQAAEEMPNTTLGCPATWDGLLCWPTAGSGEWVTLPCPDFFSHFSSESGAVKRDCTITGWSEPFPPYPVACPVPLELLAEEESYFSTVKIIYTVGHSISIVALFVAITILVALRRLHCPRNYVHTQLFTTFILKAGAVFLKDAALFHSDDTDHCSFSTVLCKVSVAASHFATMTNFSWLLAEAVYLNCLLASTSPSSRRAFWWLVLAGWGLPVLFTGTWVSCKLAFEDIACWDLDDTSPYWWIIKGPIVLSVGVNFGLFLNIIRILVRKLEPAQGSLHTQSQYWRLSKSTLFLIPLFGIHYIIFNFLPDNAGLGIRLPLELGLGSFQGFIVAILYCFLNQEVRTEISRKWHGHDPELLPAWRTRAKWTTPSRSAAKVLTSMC

[2] = biological target: T2, HA-Flag-GHRHR-Rluc8 M214V (human) (UniProt Q02643); test: as above
T2 sequence: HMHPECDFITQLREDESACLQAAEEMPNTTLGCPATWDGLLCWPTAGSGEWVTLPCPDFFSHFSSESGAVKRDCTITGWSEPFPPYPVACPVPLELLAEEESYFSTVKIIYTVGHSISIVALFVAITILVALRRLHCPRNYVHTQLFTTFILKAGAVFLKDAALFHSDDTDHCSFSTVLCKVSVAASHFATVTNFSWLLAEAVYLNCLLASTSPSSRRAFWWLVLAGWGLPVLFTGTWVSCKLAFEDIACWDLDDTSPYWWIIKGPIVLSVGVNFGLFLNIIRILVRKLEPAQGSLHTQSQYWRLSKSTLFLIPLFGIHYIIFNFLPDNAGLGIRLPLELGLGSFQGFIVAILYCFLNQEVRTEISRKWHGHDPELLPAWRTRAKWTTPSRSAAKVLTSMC

[3] = biological target: T1, HA-Flag-GHRHR-Rluc8 (WT) (human); test: FRET or BRET; HEK 293T cells co-transfected with HA-Flag-GHRHR-Rluc8 (WT or mutant) and β-arrestin2-Venus (1:9); 5 μM coelenterazine h; BRET ratio 535/470 nm followed after addition of 250 μM GHRH; AUC normalized to WT
[4] = biological target: T3, HA-Flag-GHRHR-Rluc8 A271V (human) (UniProt Q02643); test: as above
T3 sequence: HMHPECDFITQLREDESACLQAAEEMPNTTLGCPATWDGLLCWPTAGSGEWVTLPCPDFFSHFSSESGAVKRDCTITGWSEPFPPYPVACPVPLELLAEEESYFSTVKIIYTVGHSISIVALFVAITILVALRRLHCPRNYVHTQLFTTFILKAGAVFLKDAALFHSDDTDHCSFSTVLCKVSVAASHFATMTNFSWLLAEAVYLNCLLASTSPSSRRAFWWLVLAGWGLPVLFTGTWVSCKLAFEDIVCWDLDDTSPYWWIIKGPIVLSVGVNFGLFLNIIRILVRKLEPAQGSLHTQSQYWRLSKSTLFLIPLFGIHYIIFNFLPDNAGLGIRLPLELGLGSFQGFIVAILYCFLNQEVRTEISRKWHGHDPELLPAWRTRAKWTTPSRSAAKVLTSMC

[5] = biological target: T4, HA-Flag-GHRHR-Rluc8 S292W (human) (UniProt Q02643); test: as above
T4 sequence: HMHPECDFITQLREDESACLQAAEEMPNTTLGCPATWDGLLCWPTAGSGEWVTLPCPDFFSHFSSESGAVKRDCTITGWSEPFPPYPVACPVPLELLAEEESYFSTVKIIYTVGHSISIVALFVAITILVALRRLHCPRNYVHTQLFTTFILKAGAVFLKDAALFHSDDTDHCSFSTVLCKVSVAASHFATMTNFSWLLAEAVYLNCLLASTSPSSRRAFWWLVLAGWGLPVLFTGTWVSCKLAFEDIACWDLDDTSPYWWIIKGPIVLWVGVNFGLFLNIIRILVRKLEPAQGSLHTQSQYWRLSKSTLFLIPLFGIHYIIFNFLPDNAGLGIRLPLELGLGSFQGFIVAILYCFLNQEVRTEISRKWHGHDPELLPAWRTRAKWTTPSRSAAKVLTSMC

[6] = biological target: T5, GHRHR(23-405)-15AA-LgBiT-2MBP (human) (UniProt Q02643); test: radioligand binding; whole HEK 293T cells 24 h after transfection; 125I-GHRH (80 pM) competed by seven decreasing concentrations of unlabeled GHRH (from 10 μM); binding buffer PBS with 10% (w/v) BSA, pH 7.4, RT, 3 h; three-parameter logistic fit, normalized to WT; only the binder purified
T5 sequence: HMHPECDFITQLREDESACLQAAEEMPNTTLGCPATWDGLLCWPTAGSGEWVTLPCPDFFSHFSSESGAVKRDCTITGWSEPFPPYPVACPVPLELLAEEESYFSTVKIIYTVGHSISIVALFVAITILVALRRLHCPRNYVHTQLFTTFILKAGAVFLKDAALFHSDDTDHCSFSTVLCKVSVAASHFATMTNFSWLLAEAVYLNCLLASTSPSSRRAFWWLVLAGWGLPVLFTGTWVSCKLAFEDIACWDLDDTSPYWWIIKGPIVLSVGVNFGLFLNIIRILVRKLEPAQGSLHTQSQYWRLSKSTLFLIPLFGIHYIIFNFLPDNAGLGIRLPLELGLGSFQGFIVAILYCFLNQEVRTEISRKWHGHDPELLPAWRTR

[7] = biological target: T6, GHRHR(23-423) (WT) (human) (UniProt Q02643); test: as above
T6 sequence: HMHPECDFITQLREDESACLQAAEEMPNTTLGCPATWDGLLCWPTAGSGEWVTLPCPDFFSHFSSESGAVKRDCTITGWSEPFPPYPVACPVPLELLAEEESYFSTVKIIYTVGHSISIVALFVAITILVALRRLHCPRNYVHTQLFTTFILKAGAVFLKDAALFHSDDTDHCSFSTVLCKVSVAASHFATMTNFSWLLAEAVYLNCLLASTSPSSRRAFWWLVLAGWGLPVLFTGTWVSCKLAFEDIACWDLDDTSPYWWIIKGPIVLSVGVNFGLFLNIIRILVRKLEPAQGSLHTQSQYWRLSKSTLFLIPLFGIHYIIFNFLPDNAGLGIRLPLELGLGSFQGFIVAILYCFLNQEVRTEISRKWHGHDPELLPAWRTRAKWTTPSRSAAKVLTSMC

[8] = biological target: T7, GHRHR(23-405)-LgBiT-2MBP (human) (UniProt Q02643); test: radioligand binding; whole cell competition: HEK 293 T cells transfected with the receptor, 125I-GHRH (80 pM) against unlabeled peptide (from 10 μM), PBS with 10% BSA pH 7.4, RT, 3 h; only the binder purified
T7 sequence: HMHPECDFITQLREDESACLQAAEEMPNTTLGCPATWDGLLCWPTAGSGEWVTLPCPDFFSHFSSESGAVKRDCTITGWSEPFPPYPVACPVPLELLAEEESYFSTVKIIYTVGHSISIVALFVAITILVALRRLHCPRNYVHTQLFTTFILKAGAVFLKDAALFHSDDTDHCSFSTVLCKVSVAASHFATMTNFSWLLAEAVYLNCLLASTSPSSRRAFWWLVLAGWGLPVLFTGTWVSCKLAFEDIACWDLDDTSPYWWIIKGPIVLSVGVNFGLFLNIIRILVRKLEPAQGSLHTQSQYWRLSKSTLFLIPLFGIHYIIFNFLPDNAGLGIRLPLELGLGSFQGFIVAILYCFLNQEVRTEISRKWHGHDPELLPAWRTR

GHRHR(23-423) (human) = biological target: T8, GHRHR(23-423) (human) (UniProt Q02643); test: as above
T8 sequence: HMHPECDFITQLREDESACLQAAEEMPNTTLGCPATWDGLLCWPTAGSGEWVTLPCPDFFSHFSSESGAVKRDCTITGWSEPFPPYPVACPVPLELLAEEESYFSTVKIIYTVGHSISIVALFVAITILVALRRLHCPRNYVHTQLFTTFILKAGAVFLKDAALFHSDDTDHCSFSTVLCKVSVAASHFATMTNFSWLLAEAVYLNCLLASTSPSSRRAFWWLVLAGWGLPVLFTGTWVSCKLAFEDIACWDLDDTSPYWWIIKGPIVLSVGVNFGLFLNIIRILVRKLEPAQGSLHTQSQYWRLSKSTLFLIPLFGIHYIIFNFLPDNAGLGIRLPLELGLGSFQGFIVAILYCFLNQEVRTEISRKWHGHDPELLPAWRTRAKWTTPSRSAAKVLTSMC

Measured: binding

β-arrestin2-Venus (from UniProt P32121 1-409)
binds: [1] | [2] | [3] | [4] | [5]

YADAIFTNSYRKVLGQLSARKLLQDIMSRQQGESNQERGARARL (peptide, UniProt P01286 32-75, 125I label (position not given)) [125I-GHRH]
binds: [6] | [7]

YADAIFTNSYRKVLGQLSARKLLQDIMSRQQGESNQERGARARL (peptide, UniProt P01286 32-75, looked up) [Growth hormone-releasing hormone (GHRH)]
binds: [8] | GHRHR(23-423) (human)
